Compound in this test: Nc1ncnc2c1ncn2[C@@H]1O[C@H](COP(=O)(O)OP(=O)(O)NP(=O)(O)O)[C@@H](O)[C@H]1O [adenylyl imidodiphosphate]
The experiment in a line: NP40-soluble protein abundance relative to vehicle (solubility fold change) (ratio); higher = more soluble protein in presence of AMP-PNP. The procedure, abridged:
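Each value is a fold change relative to the detergent-processed vehicle, calculated per replicate from vsn-normalised intensities. Jurkat crude lysate received eight concentrations (0.1 to 10 mM) for 10 min at room temperature and 3 min at 37 °C, then was solubilised in 0.8% NP40 with benzonase (60 min, 4 °C). The ultracentrifuged supernatant was TMT-labelled and run by LC-MS/MS in three independent experiments.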

The chains behind the UniProt entries cited, without tags or fusion partners. Where a name states a change or a piece, a line headed by the entry shows the natural chain unless it says otherwise.
UniProt O75448: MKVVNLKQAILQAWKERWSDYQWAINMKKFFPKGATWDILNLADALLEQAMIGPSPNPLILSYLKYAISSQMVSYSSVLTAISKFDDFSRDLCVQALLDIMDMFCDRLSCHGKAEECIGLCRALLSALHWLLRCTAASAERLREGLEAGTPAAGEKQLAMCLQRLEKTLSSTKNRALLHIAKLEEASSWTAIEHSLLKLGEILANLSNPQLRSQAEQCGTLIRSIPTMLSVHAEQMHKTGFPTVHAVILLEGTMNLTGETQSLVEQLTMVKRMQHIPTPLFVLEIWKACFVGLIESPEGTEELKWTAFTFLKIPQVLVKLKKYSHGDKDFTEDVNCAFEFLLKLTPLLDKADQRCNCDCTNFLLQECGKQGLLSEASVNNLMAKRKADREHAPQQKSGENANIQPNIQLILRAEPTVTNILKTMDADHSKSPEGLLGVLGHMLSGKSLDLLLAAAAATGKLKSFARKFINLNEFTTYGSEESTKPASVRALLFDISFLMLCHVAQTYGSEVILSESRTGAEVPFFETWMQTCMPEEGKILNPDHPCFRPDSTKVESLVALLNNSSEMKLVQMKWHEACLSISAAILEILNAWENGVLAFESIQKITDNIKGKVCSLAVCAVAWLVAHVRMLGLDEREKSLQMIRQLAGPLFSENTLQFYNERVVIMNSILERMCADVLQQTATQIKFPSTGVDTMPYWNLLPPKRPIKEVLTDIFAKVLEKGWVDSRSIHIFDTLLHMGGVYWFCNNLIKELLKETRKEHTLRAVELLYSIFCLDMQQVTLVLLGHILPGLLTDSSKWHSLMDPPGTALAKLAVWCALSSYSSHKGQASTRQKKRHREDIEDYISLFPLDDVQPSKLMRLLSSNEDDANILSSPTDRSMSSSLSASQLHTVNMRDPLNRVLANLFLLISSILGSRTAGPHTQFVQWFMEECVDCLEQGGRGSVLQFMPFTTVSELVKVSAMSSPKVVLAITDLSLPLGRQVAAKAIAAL
UniProt Q05193: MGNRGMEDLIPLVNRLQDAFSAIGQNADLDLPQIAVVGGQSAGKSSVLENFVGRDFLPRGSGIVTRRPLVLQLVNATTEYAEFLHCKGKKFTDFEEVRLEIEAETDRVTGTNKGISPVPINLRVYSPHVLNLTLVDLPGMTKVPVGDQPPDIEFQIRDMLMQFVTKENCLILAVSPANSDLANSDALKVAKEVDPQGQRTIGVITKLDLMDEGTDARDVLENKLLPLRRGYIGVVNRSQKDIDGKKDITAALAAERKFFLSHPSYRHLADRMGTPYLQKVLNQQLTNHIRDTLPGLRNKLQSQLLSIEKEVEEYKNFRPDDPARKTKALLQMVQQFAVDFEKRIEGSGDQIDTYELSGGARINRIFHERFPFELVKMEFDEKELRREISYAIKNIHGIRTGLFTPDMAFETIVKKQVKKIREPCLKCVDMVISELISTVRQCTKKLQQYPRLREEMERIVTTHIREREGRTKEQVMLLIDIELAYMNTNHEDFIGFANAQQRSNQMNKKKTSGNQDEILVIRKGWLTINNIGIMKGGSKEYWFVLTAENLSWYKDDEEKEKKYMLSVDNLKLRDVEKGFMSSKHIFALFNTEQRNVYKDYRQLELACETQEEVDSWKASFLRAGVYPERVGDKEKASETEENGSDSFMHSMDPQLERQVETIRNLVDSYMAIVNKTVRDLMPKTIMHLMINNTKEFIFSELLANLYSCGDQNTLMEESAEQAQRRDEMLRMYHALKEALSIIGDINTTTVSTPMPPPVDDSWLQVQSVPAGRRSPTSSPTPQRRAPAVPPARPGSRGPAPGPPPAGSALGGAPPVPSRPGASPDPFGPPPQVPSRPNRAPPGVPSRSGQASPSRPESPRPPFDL
UniProt P25440, whole entry, looked up: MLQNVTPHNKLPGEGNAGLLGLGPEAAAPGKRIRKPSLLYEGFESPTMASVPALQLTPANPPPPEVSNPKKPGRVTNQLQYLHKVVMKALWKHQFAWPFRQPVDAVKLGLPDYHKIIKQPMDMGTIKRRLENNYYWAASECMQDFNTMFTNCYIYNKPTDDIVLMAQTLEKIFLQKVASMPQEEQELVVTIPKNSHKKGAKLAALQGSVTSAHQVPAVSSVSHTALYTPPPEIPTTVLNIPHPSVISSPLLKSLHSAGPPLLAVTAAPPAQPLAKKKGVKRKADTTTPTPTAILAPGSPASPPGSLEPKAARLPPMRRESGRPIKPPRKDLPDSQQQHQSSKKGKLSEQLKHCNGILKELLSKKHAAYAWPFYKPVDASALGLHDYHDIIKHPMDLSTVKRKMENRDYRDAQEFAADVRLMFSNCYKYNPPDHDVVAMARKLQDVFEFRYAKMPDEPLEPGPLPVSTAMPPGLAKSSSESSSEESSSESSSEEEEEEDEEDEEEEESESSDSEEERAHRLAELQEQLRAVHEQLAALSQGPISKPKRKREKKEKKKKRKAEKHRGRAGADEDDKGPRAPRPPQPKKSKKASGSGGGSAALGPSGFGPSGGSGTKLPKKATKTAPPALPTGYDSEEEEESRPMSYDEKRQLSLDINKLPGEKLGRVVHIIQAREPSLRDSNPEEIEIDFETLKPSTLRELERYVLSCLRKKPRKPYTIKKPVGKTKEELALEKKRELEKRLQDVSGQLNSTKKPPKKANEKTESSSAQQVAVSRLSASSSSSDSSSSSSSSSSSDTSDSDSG
UniProt P31641: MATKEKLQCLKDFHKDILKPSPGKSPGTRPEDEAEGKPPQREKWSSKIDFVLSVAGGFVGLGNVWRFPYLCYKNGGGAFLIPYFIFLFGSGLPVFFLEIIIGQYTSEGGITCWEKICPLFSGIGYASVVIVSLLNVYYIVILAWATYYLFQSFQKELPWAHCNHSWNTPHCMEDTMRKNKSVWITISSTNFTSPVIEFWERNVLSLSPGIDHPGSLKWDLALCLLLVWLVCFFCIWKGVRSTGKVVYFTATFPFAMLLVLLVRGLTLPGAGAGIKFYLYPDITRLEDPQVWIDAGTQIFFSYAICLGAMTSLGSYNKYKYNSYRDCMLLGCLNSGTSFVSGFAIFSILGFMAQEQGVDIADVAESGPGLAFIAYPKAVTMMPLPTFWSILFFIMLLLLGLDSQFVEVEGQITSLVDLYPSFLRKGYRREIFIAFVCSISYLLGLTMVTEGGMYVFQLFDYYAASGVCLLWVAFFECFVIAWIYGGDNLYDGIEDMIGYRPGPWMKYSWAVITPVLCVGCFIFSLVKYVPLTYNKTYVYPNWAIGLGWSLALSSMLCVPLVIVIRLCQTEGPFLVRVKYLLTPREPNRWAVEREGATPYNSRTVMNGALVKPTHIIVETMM
UniProt Q9UQN3, whole entry: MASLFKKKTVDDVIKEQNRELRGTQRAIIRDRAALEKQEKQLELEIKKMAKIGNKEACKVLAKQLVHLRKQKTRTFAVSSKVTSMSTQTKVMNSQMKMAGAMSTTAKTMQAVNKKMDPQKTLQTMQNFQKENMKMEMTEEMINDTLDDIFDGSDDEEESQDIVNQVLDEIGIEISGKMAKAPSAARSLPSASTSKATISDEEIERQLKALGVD
UniProt Q562E7: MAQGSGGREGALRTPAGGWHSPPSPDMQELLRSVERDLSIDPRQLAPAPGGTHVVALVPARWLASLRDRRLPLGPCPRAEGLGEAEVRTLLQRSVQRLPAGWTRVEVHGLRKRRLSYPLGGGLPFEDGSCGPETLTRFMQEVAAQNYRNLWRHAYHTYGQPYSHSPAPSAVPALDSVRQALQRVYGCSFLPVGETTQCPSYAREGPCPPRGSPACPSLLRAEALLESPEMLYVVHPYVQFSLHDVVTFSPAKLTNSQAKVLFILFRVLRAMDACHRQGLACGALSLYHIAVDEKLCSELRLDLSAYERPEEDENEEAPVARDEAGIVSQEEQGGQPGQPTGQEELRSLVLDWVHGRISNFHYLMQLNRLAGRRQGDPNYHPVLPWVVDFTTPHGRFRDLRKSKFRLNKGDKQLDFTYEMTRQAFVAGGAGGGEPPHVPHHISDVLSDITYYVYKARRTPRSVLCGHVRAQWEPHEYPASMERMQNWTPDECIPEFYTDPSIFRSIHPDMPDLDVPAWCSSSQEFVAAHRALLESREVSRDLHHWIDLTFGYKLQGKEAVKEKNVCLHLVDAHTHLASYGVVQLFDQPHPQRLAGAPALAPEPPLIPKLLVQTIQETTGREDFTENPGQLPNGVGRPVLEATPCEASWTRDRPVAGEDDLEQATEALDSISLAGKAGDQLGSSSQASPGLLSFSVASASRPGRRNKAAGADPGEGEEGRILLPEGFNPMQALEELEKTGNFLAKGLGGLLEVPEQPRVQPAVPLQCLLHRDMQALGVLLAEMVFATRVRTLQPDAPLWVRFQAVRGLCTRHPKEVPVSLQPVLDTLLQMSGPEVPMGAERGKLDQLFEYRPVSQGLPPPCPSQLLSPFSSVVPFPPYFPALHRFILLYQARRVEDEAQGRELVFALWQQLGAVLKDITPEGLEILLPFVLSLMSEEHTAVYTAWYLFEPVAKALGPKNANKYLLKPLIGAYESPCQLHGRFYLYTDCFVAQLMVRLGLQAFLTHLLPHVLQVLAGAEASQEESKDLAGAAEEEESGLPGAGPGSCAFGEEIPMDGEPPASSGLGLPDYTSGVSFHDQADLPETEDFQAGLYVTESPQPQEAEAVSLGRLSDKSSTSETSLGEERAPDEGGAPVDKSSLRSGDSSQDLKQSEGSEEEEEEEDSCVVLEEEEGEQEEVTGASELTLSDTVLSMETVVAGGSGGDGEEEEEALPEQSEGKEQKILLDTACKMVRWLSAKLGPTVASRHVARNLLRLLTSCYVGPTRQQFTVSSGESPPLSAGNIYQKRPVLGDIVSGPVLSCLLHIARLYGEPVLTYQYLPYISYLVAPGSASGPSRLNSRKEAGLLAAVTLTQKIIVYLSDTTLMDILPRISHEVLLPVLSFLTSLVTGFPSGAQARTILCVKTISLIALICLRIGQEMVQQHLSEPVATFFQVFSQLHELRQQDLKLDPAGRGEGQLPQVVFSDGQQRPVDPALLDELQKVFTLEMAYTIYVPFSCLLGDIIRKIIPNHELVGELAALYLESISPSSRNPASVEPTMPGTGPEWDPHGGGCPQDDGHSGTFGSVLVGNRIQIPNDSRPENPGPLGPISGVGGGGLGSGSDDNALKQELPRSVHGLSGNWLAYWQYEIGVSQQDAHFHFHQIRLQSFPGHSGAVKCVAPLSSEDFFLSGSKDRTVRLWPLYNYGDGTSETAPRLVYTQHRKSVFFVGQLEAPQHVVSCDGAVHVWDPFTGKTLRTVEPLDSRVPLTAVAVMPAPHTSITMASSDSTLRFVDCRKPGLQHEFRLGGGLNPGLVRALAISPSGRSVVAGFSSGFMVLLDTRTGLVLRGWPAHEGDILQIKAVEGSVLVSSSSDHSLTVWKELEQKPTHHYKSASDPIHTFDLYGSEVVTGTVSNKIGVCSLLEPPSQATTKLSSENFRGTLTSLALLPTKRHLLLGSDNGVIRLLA
UniProt P49917: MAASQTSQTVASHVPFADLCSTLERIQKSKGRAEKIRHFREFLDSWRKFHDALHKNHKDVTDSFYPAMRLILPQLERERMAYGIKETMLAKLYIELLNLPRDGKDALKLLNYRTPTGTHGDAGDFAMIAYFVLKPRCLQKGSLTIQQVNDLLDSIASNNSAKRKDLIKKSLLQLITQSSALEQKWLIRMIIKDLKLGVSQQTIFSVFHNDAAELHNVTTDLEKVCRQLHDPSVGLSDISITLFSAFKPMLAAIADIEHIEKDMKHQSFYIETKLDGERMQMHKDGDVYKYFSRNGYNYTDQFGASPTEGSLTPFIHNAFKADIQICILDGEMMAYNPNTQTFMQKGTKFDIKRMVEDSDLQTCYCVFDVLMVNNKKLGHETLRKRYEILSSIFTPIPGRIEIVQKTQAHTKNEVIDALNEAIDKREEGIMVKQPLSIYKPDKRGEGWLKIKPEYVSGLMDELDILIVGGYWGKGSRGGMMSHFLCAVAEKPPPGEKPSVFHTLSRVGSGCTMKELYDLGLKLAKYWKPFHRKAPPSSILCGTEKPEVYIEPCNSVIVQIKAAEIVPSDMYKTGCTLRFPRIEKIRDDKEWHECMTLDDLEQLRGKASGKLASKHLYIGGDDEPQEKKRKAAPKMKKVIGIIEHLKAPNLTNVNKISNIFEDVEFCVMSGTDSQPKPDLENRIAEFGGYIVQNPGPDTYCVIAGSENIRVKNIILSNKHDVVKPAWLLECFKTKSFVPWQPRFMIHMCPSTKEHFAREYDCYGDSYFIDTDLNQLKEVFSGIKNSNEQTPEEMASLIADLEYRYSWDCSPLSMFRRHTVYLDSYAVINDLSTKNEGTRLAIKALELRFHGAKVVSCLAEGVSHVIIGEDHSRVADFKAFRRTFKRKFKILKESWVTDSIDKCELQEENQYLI
UniProt P61077: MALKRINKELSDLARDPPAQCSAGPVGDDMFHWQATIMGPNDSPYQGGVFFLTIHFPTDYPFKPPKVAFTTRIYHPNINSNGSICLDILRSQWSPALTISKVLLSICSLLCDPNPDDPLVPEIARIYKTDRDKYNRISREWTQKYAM

± gives the standard deviation of the averaged measurements. This is a selection; strong and weak results do not stand in their true shares. Most values lie at the level of the controls, where differences are scatter.

As to “A0A0B4J1W0|F5GY88 and related entries (UniProt O75448)”, the NP40-soluble protein abundance runs as follows: (concentration: 0.1mM) 1.01 ± 0.015; (concentration: 0.5mM) 0.985 ± 0.038.
Take “A0A087WWC6|P01848 and related entries (UniProt Q6P4I7+P01848)”: the NP40-soluble protein abundance (concentration: 0.1mM) was found to be 0.964 ± 0.06 and the NP40-soluble protein abundance (concentration: 0.5mM) came to 1.04 ± 0.014.
As for “A0A0G2JLR5|A0A0G2JMW4|Q02833 and related entries (UniProt Q02833)”, the NP40-soluble protein abundance worked out at 1.02 ± 0.037 (concentration: 0.1mM) and 1.02 ± 0.027 (concentration: 0.5mM).
Consider “A0A0G2JNU3|A6H8Y1 and related entries (UniProt A6H8Y1)”, for which the NP40-soluble protein abundance is, setting by setting: (concentration: 0.1mM) 1.04 ± 0.11; (concentration: 0.5mM) 1.066 ± 0.0061.
The matching figures for “A0A0D9SFB1|A0A0D9SFE4|A0A0U1RQP1|Q05193 and related entries (UniProt Q05193)”: 0.991 ± 0.046 and 0.989 ± 0.067.
The matching figures for “A0A087WWK8|A0A0C4DGT3|Q6DN90 (UniProt Q6DN90)”: 1.03 ± 0.029 and 0.995 ± 0.045.
The corresponding values for “A0A0A0MTR7|A0A0A0MTC1|Q63HN8 and related entries (UniProt Q63HN8)” are 1.01 ± 0.066 and 0.954 ± 0.099.
As for “A0A087WXC5|E7ESZ7 and related entries (UniProt O95299)”, the NP40-soluble protein abundance is 0.9952 ± 0.0078 (concentration: 0.1mM) and 1.01 ± 0.048 (concentration: 0.5mM).
Regarding “A0A0G2JK44|A0A140T9E9|H0Y6K2 and related entries (UniProt P25440)”, the NP40-soluble protein abundance was 0.964 ± 0.015 (concentration: 0.1mM) and 0.98 ± 0.035 (concentration: 0.5mM).
In the case of A0A0A6YY96|P48200 (UniProt P48200), the NP40-soluble protein abundance was found to be 0.996 ± 0.04 (concentration: 0.1mM) and 1.01 ± 0.074 (concentration: 0.5mM).
The matching figures for “A0A0G2JIW2|A2AE48 and related entries (UniProt Q12899)”: 1.04 ± 0.034 and 1.02 ± 0.031.
Take A0A087WZ62: the NP40-soluble protein abundance (concentration: 0.1mM) came out at 0.965 ± 0.0086 and the NP40-soluble protein abundance (concentration: 0.5mM) worked out at 0.939 ± 0.019.
As to “A0A087WYS9|Q15526 and related entries (UniProt Q15526)”, the NP40-soluble protein abundance reads like this: (concentration: 0.1mM) 0.9743 ± 0.0087; (concentration: 0.5mM) 1.03 ± 0.027.
The corresponding values for A0A0C4DGB9|Q9H2U2 (UniProt Q9H2U2) are 1 ± 0.013 and 1.014 ± 0.0053.
For “A0A0A0MTL5|Q13309 and related entries (UniProt Q13309)”, the NP40-soluble protein abundance came out at 1.02 ± 0.011 (concentration: 0.1mM) and 0.971 ± 0.016 (concentration: 0.5mM).
For A0A140TA86|Q5XKP0 (UniProt Q5XKP0), the NP40-soluble protein abundance (concentration: 0.1mM) worked out at 0.966 ± 0.041 and the NP40-soluble protein abundance (concentration: 0.5mM) worked out at 0.9583 ± 0.0044.
On to A0A087WY96|P31641 (UniProt P31641), for which the NP40-soluble protein abundance is, setting by setting: (concentration: 0.1mM) 1 ± 0.013; (concentration: 0.5mM) 1.04 ± 0.018.
The corresponding values for “A0A0C4DG44|O43464 and related entries (UniProt O43464)” are 0.975 ± 0.026 and 0.9839 ± 0.0063.
In the case of A0A087X0K1|Q9Y376 (UniProt Q9Y376), the NP40-soluble protein abundance runs as follows: (concentration: 0.1mM) 1.01 ± 0.064; (concentration: 0.5mM) 1.02 ± 0.021.
The matching figures for A0A0C4DGZ0 (UniProt P24928): 1.03 ± 0.015 and 0.994 ± 0.045.
In the case of A0A087WW88|Q9UQN3 (UniProt Q9UQN3), the NP40-soluble protein abundance (concentration: 0.1mM) came out at 1.01 ± 0.026 and the NP40-soluble protein abundance (concentration: 0.5mM) stood at 1.02 ± 0.049.
The corresponding values for “A0A0J9YXM6|E9PDG3 and related entries (UniProt Q562E7)” are 0.974 ± 0.054 and 0.986 ± 0.02.
The matching figures for “A0A0A0MSK6|Q13017 and related entries (UniProt Q13017)”: 1 ± 0.039 and 0.993 ± 0.021.
The matching figures for A0A0A0MR85|Q03013 (UniProt Q03013): 0.968 ± 0.031 and 0.981 ± 0.046.
A0A0A0MTS7|Q8WZ42-12 (UniProt Q8WZ42): the NP40-soluble protein abundance runs as follows: (concentration: 0.1mM) 1.02 ± 0.03; (concentration: 0.5mM) 0.97 ± 0.04.
The matching figures for A0A0C4DGT4|Q643R3 (UniProt Q643R3): 1.02 ± 0.021 and 0.995 ± 0.034.
Regarding “A0A0C4DGQ5|K7EIV0 and related entries (UniProt P04632)”, the NP40-soluble protein abundance reads like this: (concentration: 0.1mM) 0.983 ± 0.05; (concentration: 0.5mM) 1.03 ± 0.023.
For “A0A0D9SEJ5|F5GY05 and related entries (UniProt Q96EK7)”, the NP40-soluble protein abundance is, setting by setting: (concentration: 0.1mM) 0.991 ± 0.057; (concentration: 0.5mM) 0.959 ± 0.018.
The corresponding values for A0A0C4DGV9|P49917 (UniProt P49917) are 1.02 ± 0.0064 and 1.05 ± 0.072.
The matching figures for “A0A0D9SF28|F5GXV7 and related entries (UniProt Q8NFP9)”: 1.02 ± 0.018 and 1 ± 0.019.
The matching figures for “A0A087X011|E9PES4 and related entries (UniProt Q9Y496)”: 0.998 ± 0.02 and 0.9835 ± 0.0065.
For “A0A087WY85|P61077 and related entries (UniProt P61077)”, the NP40-soluble protein abundance runs as follows: (concentration: 0.1mM) 0.972 ± 0.032; (concentration: 0.5mM) 0.968 ± 0.035.
The corresponding values for A0A087WYW3|P30414 (UniProt P30414) are 0.996 ± 0.04 and 1.02 ± 0.013.
The matching figures for A0A0A0MRR7|P09234 (UniProt P09234): 0.959 ± 0.028 and 1.02 ± 0.029.

The record behind these values is the supplement of paper PMC6411743.
